Results are given in words; binding and its absence hold for the method and conditions named. Some binding calls cover weakened binding; strength is not graded here. Where a sequence is shown, tags or fusion partners need not be part of it.
How the values were obtained:
[1] = molecular target: T1, MecA, bacterial two-hybrid fusion (T18 or T25 fragment of adenylate cyclase Cya) (Streptococcus mutans) (UniProt Q8DW33); assay: two-hybrid; BACTH bacterial two-hybrid (T18 and T25 fragments of B. pertussis adenylate cyclase) in E. coli BTH101; blue colonies on LB agar with X-gal (50 µg/mL) and IPTG (0.5 mM); for CcpA: the arrangement with CcpA fused to T18
T1 sequence: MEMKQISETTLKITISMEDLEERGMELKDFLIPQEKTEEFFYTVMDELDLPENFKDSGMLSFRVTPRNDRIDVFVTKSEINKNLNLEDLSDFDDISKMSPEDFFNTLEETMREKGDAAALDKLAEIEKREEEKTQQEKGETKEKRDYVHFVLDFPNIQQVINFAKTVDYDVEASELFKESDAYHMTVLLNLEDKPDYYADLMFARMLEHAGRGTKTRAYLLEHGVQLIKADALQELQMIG

Sequences of proteins named here, by UniProt entry; tags and fusion partners are left off.
UniProt O07329: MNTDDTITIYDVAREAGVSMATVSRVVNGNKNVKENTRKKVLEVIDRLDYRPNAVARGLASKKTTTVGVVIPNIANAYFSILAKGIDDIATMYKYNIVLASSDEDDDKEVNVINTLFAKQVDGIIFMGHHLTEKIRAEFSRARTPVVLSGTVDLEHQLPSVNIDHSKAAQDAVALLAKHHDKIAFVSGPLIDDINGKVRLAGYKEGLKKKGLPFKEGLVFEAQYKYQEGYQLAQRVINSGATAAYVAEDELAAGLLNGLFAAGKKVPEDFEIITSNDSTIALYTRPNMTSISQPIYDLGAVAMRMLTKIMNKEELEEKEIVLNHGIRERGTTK
UniProt Q8DUI0: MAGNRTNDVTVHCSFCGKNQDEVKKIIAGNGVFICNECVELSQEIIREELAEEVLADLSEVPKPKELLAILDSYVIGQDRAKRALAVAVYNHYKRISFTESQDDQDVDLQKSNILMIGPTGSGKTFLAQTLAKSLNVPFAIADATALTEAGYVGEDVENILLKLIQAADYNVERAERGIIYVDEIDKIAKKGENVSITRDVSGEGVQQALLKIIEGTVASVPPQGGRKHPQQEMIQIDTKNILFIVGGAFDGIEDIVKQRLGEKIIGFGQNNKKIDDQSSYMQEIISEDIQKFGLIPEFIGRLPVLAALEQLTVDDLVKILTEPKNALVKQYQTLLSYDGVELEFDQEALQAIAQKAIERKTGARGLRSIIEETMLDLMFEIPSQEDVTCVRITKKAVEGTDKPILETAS

[2] = molecular target: T1, MecA, bacterial two-hybrid fusion (T18 or T25 fragment of adenylate cyclase Cya) (Streptococcus mutans); assay: two-hybrid; BACTH bacterial two-hybrid in E. coli BTH101; blue colonies on LB agar with X-gal and IPTG; the arrangement with CcpA fused to the T25 domain

binding [1]	binding [2]	Substance
binds	binds weakly	CcpA, bacterial two-hybrid fusion (T18 or T25 fragment of adenylate cyclase Cya) (from UniProt O07329 1-333)
binds		ClpX, bacterial two-hybrid fusion (T18 or T25 fragment of adenylate cyclase Cya) (from UniProt Q8DUI0 1-410)

Source: paper PMC11656736
